These are yes or no findings as the source states them, for the method shown. In cells and extracts the contact can be indirect. Some results given as binding are weak or reduced against the parent protein; the word gives no strength.
Molecular target: FABP3-mouse-3×FLAG (fatty acid binding protein 3) (mouse) (UniProt P11404)
Test: co-IP; 3T3-L1 cells transfected for 48 h with the 3×FLAG vector or empty vector; lysate with 20 μl anti-FLAG magnetic beads at 4°C overnight, three to five washes with lysis buffer; Western blot

By UniProt entry, the sequences of proteins in these tests, tags left out.
UniProt P11404: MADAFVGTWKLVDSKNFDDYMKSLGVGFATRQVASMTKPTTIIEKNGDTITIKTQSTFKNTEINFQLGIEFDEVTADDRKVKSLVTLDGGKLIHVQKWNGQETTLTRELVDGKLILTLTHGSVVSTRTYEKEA
UniProt Q99JI1: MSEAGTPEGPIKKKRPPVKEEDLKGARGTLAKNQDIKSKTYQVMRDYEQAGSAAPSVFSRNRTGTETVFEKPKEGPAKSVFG

binding: binds
Substance: Musculoskeletal embryonic nuclear protein 1 (MUSTN1) in 3T3-L1 cells (from UniProt Q99JI1 1-82)

— article PMC12139245
